Assay results published in the supplement of paper PMC10849652.
The list shows a part of the results.

By UniProt entry, the sequences of proteins in these tests, tags left out. Where a name states a change or a piece, a line headed by the entry shows the natural chain unless it says otherwise.
UniProt P37275: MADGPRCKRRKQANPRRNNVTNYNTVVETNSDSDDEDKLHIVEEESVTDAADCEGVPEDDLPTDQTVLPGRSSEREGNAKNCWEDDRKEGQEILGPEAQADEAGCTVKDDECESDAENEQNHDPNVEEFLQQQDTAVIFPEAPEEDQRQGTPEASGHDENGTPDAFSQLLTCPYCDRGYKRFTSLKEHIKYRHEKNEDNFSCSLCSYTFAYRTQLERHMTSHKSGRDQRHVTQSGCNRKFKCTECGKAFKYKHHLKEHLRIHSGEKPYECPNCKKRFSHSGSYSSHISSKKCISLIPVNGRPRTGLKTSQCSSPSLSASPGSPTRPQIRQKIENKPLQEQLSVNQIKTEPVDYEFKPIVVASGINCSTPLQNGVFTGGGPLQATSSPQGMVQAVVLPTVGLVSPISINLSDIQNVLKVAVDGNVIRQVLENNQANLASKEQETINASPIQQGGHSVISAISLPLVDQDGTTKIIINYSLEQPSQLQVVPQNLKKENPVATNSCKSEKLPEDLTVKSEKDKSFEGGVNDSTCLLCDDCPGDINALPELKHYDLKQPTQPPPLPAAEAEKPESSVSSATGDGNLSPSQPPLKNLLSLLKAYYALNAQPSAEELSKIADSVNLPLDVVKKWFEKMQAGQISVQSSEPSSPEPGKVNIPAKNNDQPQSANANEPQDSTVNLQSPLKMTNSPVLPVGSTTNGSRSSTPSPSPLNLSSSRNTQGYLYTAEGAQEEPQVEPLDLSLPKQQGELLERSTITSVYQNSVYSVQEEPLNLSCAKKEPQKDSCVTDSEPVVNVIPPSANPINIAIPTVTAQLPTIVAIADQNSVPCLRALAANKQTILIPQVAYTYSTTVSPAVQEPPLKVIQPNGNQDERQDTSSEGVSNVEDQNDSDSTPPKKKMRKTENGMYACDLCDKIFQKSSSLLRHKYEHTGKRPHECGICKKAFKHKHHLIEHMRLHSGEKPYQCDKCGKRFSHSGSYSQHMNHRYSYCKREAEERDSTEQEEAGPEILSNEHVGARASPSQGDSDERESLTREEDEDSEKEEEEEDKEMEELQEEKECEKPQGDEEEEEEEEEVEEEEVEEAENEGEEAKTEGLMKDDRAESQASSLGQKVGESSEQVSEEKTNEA
UniProt Q9H2Y7: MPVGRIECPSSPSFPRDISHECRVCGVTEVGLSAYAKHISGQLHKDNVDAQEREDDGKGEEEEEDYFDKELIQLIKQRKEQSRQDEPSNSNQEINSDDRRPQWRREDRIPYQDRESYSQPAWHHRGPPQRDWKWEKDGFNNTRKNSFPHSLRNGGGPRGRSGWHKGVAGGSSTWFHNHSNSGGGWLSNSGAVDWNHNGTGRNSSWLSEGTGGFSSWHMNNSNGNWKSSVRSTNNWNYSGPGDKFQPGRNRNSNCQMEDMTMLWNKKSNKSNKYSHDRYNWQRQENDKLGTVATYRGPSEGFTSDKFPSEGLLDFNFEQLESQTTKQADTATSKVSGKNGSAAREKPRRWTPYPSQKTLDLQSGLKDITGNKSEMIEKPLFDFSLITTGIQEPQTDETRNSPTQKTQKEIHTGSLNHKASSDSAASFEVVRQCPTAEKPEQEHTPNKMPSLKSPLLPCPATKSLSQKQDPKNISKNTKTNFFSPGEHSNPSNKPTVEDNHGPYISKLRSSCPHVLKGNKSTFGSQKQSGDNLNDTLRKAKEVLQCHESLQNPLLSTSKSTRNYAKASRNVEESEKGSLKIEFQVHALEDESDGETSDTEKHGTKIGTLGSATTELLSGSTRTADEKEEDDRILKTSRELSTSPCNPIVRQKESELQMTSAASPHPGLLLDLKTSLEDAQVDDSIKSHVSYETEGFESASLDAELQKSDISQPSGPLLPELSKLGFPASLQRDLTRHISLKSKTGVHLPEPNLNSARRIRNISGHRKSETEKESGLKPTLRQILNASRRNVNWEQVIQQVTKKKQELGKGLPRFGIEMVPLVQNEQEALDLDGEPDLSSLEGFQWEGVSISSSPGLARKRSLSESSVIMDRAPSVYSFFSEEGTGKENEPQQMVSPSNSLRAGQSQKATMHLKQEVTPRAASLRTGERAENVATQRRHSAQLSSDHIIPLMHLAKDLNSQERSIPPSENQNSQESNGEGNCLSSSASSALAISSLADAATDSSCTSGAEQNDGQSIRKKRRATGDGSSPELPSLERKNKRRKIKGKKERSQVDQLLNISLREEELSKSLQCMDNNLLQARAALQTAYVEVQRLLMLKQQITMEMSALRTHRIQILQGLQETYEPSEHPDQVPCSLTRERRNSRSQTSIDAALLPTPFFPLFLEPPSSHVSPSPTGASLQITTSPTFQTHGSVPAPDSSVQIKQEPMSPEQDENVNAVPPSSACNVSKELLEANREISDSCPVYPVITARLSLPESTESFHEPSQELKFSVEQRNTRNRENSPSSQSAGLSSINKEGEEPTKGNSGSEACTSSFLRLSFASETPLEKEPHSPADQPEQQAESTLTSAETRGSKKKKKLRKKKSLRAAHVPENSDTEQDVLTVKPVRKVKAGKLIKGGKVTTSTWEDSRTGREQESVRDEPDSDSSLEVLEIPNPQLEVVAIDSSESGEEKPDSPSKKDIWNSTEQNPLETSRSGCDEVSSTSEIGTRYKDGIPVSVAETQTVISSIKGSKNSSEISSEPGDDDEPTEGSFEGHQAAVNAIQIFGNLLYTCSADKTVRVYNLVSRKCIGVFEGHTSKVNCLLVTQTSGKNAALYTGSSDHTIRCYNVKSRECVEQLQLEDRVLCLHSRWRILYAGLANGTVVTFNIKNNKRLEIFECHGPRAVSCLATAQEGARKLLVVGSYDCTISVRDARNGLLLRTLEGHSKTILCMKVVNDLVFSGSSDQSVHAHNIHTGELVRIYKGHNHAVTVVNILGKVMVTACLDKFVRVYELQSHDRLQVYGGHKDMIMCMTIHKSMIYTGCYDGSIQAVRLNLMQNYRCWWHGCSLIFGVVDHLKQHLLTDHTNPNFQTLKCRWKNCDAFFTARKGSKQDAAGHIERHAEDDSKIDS
UniProt Q8N567: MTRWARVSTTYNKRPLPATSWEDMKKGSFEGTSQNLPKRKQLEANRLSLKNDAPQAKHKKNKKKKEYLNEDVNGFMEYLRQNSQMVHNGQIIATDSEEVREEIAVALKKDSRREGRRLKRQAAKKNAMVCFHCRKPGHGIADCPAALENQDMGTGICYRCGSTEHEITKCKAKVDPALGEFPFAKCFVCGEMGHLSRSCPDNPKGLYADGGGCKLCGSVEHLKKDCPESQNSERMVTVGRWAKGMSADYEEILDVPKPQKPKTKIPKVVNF
UniProt Q5SVZ6: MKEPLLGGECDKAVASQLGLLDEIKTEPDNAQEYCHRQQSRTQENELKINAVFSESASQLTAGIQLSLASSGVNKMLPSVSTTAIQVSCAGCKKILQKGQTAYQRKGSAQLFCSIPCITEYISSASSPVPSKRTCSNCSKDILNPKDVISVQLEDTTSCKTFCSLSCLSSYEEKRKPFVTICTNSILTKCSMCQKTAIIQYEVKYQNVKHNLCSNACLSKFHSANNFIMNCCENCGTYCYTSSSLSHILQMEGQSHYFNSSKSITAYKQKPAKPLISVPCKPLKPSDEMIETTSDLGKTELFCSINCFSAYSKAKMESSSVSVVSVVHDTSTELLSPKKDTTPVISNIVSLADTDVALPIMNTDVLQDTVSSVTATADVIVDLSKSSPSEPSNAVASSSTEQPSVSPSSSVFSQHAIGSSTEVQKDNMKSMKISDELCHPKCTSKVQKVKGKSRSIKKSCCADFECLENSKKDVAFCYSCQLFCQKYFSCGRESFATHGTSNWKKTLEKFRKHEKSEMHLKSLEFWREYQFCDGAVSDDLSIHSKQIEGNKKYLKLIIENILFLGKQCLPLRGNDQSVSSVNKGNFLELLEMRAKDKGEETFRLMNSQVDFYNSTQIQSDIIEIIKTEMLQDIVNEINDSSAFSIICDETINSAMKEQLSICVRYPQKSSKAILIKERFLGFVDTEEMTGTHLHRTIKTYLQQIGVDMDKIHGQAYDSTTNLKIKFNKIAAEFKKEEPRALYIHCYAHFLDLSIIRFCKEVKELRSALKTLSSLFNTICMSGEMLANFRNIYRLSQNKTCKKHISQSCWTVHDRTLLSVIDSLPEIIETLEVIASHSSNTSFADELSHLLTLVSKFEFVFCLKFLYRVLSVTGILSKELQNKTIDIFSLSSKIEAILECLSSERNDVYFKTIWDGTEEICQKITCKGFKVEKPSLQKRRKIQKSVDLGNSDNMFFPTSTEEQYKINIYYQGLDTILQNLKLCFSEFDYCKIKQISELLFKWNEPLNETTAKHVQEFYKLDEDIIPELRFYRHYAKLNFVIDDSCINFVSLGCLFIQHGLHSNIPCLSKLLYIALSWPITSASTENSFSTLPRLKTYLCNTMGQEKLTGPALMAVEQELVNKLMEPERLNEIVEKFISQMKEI
UniProt Q9UIJ5: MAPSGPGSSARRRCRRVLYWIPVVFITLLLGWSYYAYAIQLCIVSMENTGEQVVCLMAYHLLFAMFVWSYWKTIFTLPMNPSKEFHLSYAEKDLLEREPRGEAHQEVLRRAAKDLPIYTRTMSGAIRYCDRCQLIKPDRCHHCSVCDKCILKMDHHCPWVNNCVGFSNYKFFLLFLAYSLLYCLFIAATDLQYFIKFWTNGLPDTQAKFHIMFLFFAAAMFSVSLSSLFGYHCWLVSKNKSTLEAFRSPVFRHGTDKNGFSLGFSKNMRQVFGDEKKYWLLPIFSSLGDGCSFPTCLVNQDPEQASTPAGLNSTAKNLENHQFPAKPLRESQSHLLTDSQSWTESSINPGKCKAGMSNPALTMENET
UniProt O43167: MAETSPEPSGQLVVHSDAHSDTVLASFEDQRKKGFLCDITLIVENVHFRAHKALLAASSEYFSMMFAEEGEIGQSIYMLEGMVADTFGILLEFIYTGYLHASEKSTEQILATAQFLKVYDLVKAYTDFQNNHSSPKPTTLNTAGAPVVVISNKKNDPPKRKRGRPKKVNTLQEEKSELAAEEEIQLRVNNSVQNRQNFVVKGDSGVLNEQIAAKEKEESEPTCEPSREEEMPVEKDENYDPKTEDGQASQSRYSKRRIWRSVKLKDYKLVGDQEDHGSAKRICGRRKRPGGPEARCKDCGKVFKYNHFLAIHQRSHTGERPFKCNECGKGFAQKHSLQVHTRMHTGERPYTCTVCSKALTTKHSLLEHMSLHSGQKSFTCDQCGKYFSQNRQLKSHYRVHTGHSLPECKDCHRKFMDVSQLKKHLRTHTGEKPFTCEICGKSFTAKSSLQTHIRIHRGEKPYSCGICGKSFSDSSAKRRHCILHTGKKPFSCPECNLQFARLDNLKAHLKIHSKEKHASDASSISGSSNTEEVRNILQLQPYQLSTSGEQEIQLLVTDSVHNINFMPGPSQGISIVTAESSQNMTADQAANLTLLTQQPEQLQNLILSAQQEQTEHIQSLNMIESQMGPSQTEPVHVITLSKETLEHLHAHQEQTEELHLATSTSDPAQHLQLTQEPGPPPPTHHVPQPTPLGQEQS
UniProt Q8TCF1: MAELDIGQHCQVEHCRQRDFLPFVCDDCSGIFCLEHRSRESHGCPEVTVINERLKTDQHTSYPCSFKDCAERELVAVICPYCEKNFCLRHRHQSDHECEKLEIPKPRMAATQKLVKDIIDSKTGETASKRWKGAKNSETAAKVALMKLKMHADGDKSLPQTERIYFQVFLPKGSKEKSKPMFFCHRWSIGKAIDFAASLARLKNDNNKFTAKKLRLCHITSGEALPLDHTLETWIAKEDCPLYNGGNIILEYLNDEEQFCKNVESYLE
UniProt Q16600: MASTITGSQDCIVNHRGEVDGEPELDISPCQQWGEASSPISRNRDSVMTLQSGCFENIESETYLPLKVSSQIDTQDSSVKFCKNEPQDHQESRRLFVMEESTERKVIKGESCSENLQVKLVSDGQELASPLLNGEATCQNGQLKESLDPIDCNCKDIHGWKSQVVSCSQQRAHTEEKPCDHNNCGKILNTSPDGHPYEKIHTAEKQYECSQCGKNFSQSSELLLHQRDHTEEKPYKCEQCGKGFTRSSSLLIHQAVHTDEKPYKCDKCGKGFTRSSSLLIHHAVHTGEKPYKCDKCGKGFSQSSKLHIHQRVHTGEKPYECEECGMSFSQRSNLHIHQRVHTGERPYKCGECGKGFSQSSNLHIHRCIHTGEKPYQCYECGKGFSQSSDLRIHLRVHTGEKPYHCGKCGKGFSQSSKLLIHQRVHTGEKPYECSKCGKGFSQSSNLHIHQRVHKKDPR
UniProt Q9NUE0: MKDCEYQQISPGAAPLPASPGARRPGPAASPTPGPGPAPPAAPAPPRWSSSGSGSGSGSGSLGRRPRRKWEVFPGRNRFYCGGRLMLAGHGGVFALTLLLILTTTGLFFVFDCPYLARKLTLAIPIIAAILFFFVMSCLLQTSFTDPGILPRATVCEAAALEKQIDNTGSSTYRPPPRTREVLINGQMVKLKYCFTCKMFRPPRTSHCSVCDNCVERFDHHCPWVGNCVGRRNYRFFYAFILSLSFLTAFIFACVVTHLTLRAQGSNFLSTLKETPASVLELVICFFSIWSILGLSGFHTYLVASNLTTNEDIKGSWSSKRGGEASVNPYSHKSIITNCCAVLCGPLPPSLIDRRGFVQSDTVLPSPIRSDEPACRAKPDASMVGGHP

Experiments:
Assay in all cases: log2 fold change, soluble protein after heating vs DMSO (PISA); higher = thermal stabilisation; K562 cells, 10 uM, 30 min; active = over 0.2 and 3.5 SD of the protein, either way, in both replicates (recomputed)
[1] = compound: CC1=C(C=C(C=C1)NC(=O)C2=CC(=CC=C2)C(C)(C)C#N)NC3=CC4=C(C=C3)N=CN(C4=O)C
Summary of the method: (§1)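 Thermal stability values are relative to control samples and come from duplicates. They are expressed as log2 fold changes. For measurement, K562 cells (2×10^6 cells/mL) received 10 μM compound for 30 min, and aliquots were heated for 3 min over 48°C-58°C, pooled, and extracted at 4°C in PBS with 0.5% NP-40. Soluble protein, the supernatant after 21,000xg for 90 min, was quantified by TMTpro 16plex LC-MS/MS with equalised channel sums.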

[2] = compound: CC1=CC=C(C=C1)SC2=C3C=C(SC3=CN=C2)C(=O)N
Summary of the method: as §1

[3] = compound: CC1=NC(=CC=C1)C2=C(N=C(N2)C(C)(C)C)C3=CC4=NC=CN=C4C=C3
Summary of the method: as §1

vemurafenib = compound: CCCS(=O)(=O)Nc1ccc(F)c(C(=O)c2c[nH]c3ncc(-c4ccc(Cl)cc4)cc23)c1F [vemurafenib]
Summary of the method: as §1

[4] = compound: CCCS(=O)(=O)Nc1ccc(F)c(C(=O)c2c[nH]c3ncc(Cl)cc23)c1F
Summary of the method: as §1

[5] = compound: CCCc1cc(C)[nH]c(=O)c1CNC(=O)c1cc(-c2ccnc(N3CCN(C)CC3)c2)cc2c1cnn2C(C)C
Summary of the method: as §1

givinostat = compound: CCN(CC)Cc1ccc2cc(COC(=O)Nc3ccc(C(=O)NO)cc3)ccc2c1 [givinostat]
Summary of the method: as §1

barasertib = compound: CCN(CCCOc1ccc2c(Nc3cc(CC(=O)Nc4cccc(F)c4)[nH]n3)ncnc2c1)CCOP(=O)(O)O [barasertib]
Summary of the method: as §1

[6] = compound: CC[C@@H]1C(=O)N(C)c2cnc(Nc3ccc(C(=O)NC4CCN(C)CC4)cc3OC)nc2N1C1CCCC1
Summary of the method: as §1

volasertib = compound: CC[C@@H]1C(=O)N(C)c2cnc(Nc3ccc(C(=O)N[C@H]4CC[C@H](N5CCN(CC6CC6)CC5)CC4)cc3OC)nc2N1C(C)C [volasertib]
Summary of the method: as §1

[7] = compound: CC[C@H](C)N1C=C(C2=C(C=C(C=C21)C3=CN=C(C=C3)N4CCNCC4)C(=O)NCC5=C(C=C(NC5=O)C)C)C
Summary of the method: as §1

[8] = compound: CCn1c(C(=O)N(C2CC2)C2CC2)cc2c3c(ncn3C)c(Nc3cc(C)n(C)n3)nc21
Summary of the method: as §1

[9] = compound: CCn1cc(-c2ccnc3[nH]c(-c4cccc(CN(C)C)c4)cc23)c(-c2ccc(NC(=O)N(C)C)cc2)n1
Summary of the method: as §1

[10] = compound: CN(C)CC(=O)Nc1ccc2[nH]c(=O)c3ccccc3c2c1
Summary of the method: as §1

rosiglitazone = compound: CN(CCOC1=CC=C(C=C1)C[C@H]2C(=O)NC(=O)S2)C3=CC=CC=N3 (racemic) [rosiglitazone]
Summary of the method: as §1

[11] = compound: CN1C2=C(C3=C1C(=O)N(N=C3)CC4=CC(=CC=C4)N)SC(=C2)S(=O)C
Summary of the method: as §1

[12] = compound: CN1CCC(CNc2ccc3ncc(-c4cccc(OC(F)(F)F)c4)n3n2)CC1
Summary of the method: as §1

[13] = compound: CC1=C(C=C(C=C1)NC(=O)C2=CC(=CC=C2)N(C)C)NC(=O)C3=CC=C(C=C3)O
Summary of the method: as §1

Nexturastat A = compound: CCCCN(Cc1ccc(C(=O)NO)cc1)C(=O)Nc1ccccc1 [Nexturastat A]
Summary of the method: as §1

epoxomicin = compound: CC[C@H](C)[C@@H](C(=O)N[C@@H]([C@@H](C)O)C(=O)N[C@@H](CC(C)C)C(=O)[C@]1(CO1)C)NC(=O)[C@H]([C@@H](C)CC)N(C)C(=O)C [epoxomicin]
Summary of the method: as §1

| Target | log2 fold change [1] | log2 fold change [2] | log2 fold change [3] | log2 fold change (vemurafenib) | log2 fold change [4] | log2 fold change [5] | log2 fold change (givinostat) | log2 fold change (barasertib) | log2 fold change [6] | log2 fold change (volasertib) | log2 fold change [7] | log2 fold change [8] | log2 fold change [9] | log2 fold change [10] | log2 fold change (rosiglitazone) | log2 fold change [11] | log2 fold change [12] | log2 fold change [13] | log2 fold change (Nexturastat A) | log2 fold change (epoxomicin) |
| --- | --- | --- | --- | --- | --- | --- | --- | --- | --- | --- | --- | --- | --- | --- | --- | --- | --- | --- | --- | --- |
| ZEB1 isoform 2 (UniProt P37275) | inactive: 0.011 | inactive: -0.062 | inactive: 0.057 | inactive: -0.12 | inactive: 0.057 | inactive: -0.002 | inactive: 0.049 | inactive: 0.012 | inactive: 0.006 | inactive: 0.108 | inactive: 0.053 | inactive: -0.068 | inactive: -0.003 | inactive: 0.065 | inactive: 0.028 | inactive: 0.021 | inactive: 0.13 | – | – | – |
| ZNF106 (UniProt Q9H2Y7) | inactive: -0.024 | inactive: -0.113 | – | inactive: 0.018 | inactive: 0.013 | – | – | inactive: 0.022 | inactive: 0.138 | inactive: 0.289 | inactive: 0.014 | – | – | inactive: -0.063 | inactive: 0.021 | inactive: -0.007 | – | – | – | – |
| ZCCHC9 (UniProt Q8N567) | inactive: -0.227 | inactive: -0.109 | inactive: -0.133 | inactive: -0.11 | inactive: -0.177 | inactive: 0.057 | inactive: 0.038 | inactive: -0.094 | inactive: 0.246 | inactive: 0.226 | inactive: 0.013 | – | inactive: 0.201 | inactive: -0.125 | – | – | inactive: 0.181 | inactive: 0.062 | inactive: 0.311 | inactive: -0.303 |
| ZBTB43 (UniProt O43298) | inactive: 0.004 | – | inactive: -0.04 | inactive: 0.044 | – | – | inactive: -0.006 | inactive: -0.105 | inactive: -0.061 | – | inactive: -0.187 | – | inactive: 0.028 | inactive: -0.07 | – | inactive: 0.017 | inactive: 0.032 | inactive: 0.141 | inactive: -0.203 | inactive: -0.054 |
| ZMYM1 (UniProt Q5SVZ6) | inactive: -0.071 | inactive: 0.061 | inactive: 0.042 | inactive: -0.095 | inactive: -0.006 | inactive: -0.017 | inactive: 0.12 | inactive: 0.022 | inactive: 0.202 | inactive: -0.118 | inactive: -0.016 | – | inactive: 0.141 | inactive: -0.046 | – | inactive: -0.014 | inactive: 0.086 | inactive: 0.051 | inactive: 0.059 | inactive: -0.05 |
| ZDHHC2 (UniProt Q9UIJ5) | inactive: -0.095 | inactive: 0.017 | inactive: 0.044 | – | inactive: 0.015 | inactive: 0.035 | – | inactive: -0.081 | inactive: 0.013 | inactive: 0.063 | inactive: 0.033 | – | inactive: 0.031 | – | inactive: 0.209 | – | inactive: -0.023 | inactive: -0.025 | – | – |
| ZBTB24 (UniProt O43167) | inactive: 0.146 | inactive: -0.182 | – | – | inactive: 0.041 | – | inactive: -0.001 | – | inactive: 0.047 | inactive: 0.336 | – | inactive: -0.048 | inactive: 0.071 | – | – | inactive: 0.214 | inactive: 0.239 | inactive: 0.096 | inactive: 0.116 | inactive: -0.112 |
| ZFAND1 (UniProt Q8TCF1) | inactive: 0.051 | inactive: 0.275 | inactive: -0.018 | inactive: 0.275 | inactive: 0.236 | inactive: 0.157 | inactive: -0.108 | inactive: 0.02 | inactive: -0.065 | inactive: -0.248 | inactive: 0.01 | inactive: 0.028 | – | inactive: 0.045 | inactive: 0.019 | – | – | inactive: 0 | – | – |
| ZNF239 (UniProt Q16600) | inactive: -0.002 | inactive: 0.019 | inactive: 0.013 | inactive: 0.004 | inactive: -0.02 | active: -0.662 | inactive: -0.226 | inactive: -0.034 | – | inactive: 0.084 | inactive: -0.096 | – | inactive: 0.095 | inactive: -0.1 | – | inactive: 0.34 | inactive: -0.063 | inactive: 0.143 | inactive: 0.441 | inactive: -0.051 |
| ZDHHC18 (UniProt Q9NUE0) | inactive: 0.007 | inactive: 0.173 | inactive: -0.06 | – | inactive: 0.052 | inactive: 0.065 | inactive: -0.039 | inactive: -0.107 | inactive: 0.028 | inactive: -0.138 | inactive: -0.128 | inactive: -0.03 | inactive: 0.017 | – | inactive: 0.084 | inactive: -0.278 | inactive: 0.105 | inactive: 0.044 | inactive: 0.028 | inactive: -0.007 |

Whole records from above. Order of values: log2 fold change [1]	log2 fold change [2]	log2 fold change [3]	log2 fold change (vemurafenib)	log2 fold change [4]	log2 fold change [5]	log2 fold change (givinostat)	log2 fold change (barasertib)	log2 fold change [6]	log2 fold change (volasertib)	log2 fold change [7]	log2 fold change [8]	log2 fold change [9]	log2 fold change [10]	log2 fold change (rosiglitazone)	log2 fold change [11]	log2 fold change [12]	log2 fold change [13]	log2 fold change (Nexturastat A)	log2 fold change (epoxomicin)
ZBTB24 (UniProt O43167) as listed: inactive: 0.146	inactive: -0.182	–	–	inactive: 0.041	–	inactive: -0.001	–	inactive: 0.047	inactive: 0.336	–	inactive: -0.048	inactive: 0.071	–	–	inactive: 0.214	inactive: 0.239	inactive: 0.096	inactive: 0.116	inactive: -0.112
ZDHHC2 (UniProt Q9UIJ5) as listed: inactive: -0.095	inactive: 0.017	inactive: 0.044	–	inactive: 0.015	inactive: 0.035	–	inactive: -0.081	inactive: 0.013	inactive: 0.063	inactive: 0.033	–	inactive: 0.031	–	inactive: 0.209	–	inactive: -0.023	inactive: -0.025	–	–
